Results on 42 sequences are retold here after article PMC7819943, “Rice protein-binding microarrays: a tool to detect cis-acting elements near promoter regions in rice”.

By UniProt entry, the sequences of proteins in these tests, tags left out.
UniProt Q0JBA9, entry or part of it: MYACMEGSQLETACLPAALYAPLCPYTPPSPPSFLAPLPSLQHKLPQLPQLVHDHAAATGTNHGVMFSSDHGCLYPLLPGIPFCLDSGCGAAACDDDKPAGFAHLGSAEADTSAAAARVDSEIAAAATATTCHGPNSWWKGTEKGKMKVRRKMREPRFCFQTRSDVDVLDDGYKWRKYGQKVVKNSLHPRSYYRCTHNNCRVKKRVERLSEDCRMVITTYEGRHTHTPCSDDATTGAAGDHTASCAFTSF

The list shows a part of the results.

The assay concerns the target OsWRKY34 (Oryza sativa, UniProt Q0JBA9 1-250). Description: protein-binding microarray (RPBM); PBS, 2% BSA, 51.3 ng/ul salmon testes DNA, 50 uM zinc acetate, 200 nM TF, 25 C, 1 h; high values mean tight binding. The following applies: protein: recombinant; tags: N-terminal polyhistidine and DsRed monomer fusion (pET32a); label: CyDye5-dUTP incorporated in the synthesized complementary strand; 3' TTTTT single-stranded linker to array surface; dsDNA, one strand shown. The gist of the method: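 The binding signal is fluorescence intensity per array feature (arbitrary units). Readings came from an Axon 4000B scanner after a washed, 2% BSA-blocked, double-stranded custom Agilent array had been incubated for 1 h at 25 °C with 200 nM protein and 50 µM zinc acetate. The protein was a Ni–NTA-purified transcription factor fused N-terminally to polyhistidine and DsRed, expressed in E. coli BL21-CodonPlus.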
On to “TGATTGCGCTCTCTCTCTCTCTCTCTCTCTCTCTCGTTCGCGGAGTCACCTAGTGCAG”, for which the binding signal was 10100 fluorescence intensity (a.u.).
Consider “CCTTTTGCACATGTTGTATGTACCTTTTACACATGTTGTACGGAGTCACCTAGTGCAG”, for which the binding signal is 9490 fluorescence intensity (a.u.).
With “ATCTTGTATTCAAATTGCATCGTTTAATCGTTACAGTTATCGGAGTCACCTAGTGCAG”, the binding signal is 8040 fluorescence intensity (a.u.).
In the case of “ATTTCTAATTTCGAATTTCAGCTATTTTTTATATTGTATTCGGAGTCACCTAGTGCAG” it was 9050 fluorescence intensity (a.u.).
Take “ATTCAATTCGCAGCTATATTTGTTATTTTTGTTACAACTTCGGAGTCACCTAGTGCAG”: the binding signal was 13800 fluorescence intensity (a.u.).
In the case of “TATTCAGATACTATACTCTCCTGTTTCCTGACAATTTTATCGGAGTCACCTAGTGCAG” it was 8460 fluorescence intensity (a.u.); in that of “TGTTATTTTCTTGTGAGCCACCTATACACATTATCTTTTACGGAGTCACCTAGTGCAG”, 12500 fluorescence intensity (a.u.); in that of “TCCCCAACACCTCCACTCCTCTCCTCTTATCCGCGAACATCGGAGTCACCTAGTGCAG”, 8300 fluorescence intensity (a.u.).
As for “TGCAAGATAGCCTGCCGGCCCCAATCCTAATTGCTGTAATCGGAGTCACCTAGTGCAG”, the binding signal was 8130 fluorescence intensity (a.u.).
Take “ACCGCCATATCAGCACACGTTTTAGAGCACCAATCATAACCGGAGTCACCTAGTGCAG”: the binding signal is 8620 fluorescence intensity (a.u.).
Then “CAAACCGCCATTGACCACCGCCCTTCGTCGCCTATAAATACGGAGTCACCTAGTGCAG”, with 10100 fluorescence intensity (a.u.); and “CATGTGTTACTGTGTTATGAGATCGTGGAATTAATTCCACCGGAGTCACCTAGTGCAG”, with 9220 fluorescence intensity (a.u.); and “TCATCGATTTTTTGCCATCTACTACACGGCTTTTATTTTGCGGAGTCACCTAGTGCAG”, with 8880 fluorescence intensity (a.u.).
Then “AGCTGGTGGTGGTGGAGGGCAATGAGTTCACGAGCGGTCGCGGAGTCACCTAGTGCAG”, with 9520 fluorescence intensity (a.u.); and “TTTTTTTTCTCCATGTTTGTTGCAGGCTTATCAGAATGACCGGAGTCACCTAGTGCAG”, with 10000 fluorescence intensity (a.u.); and “CGTTGTTCCTTACTCACCTTTTGCCTCTCGCTGCCTTGCCCGGAGTCACCTAGTGCAG”, with 13500 fluorescence intensity (a.u.).
“ACCACGTACTGATCCTATCCATTAATCCATAAGCAACCCACGGAGTCACCTAGTGCAG”: the binding signal is 9760 fluorescence intensity (a.u.).
Turning to “GACTAGTCATAATATCTTATGACTCATTCTTATGGTATATCGGAGTCACCTAGTGCAG”, the binding signal was 8330 fluorescence intensity (a.u.).
Take “TTGATGGTCAAATATTCAAATGGTTGACTTATGAAAAATCCGGAGTCACCTAGTGCAG”: the binding signal was 8150 fluorescence intensity (a.u.).
On to “CAGCCTATATTTATTTTTCTATCGTTTTTCCCATGACCATCGGAGTCACCTAGTGCAG”, for which the binding signal was 9930 fluorescence intensity (a.u.).
In the case of “CTGCGCAAGTGAGCTGGGCCCTATCCTCGTCCACCTTTCACGGAGTCACCTAGTGCAG” it was 9910 fluorescence intensity (a.u.); in that of “AGTAGCGCAACGGCTAGTTTTTTCTCTCCTCGCGTGATGTCGGAGTCACCTAGTGCAG”, 8130 fluorescence intensity (a.u.).
Consider “TATATGTCGAGCCTTTTGCTTTTTATCTATGCCTCCAAAGCGGAGTCACCTAGTGCAG”, for which the binding signal was 10300 fluorescence intensity (a.u.).
In the case of “CATAATTCCCTTACGTATAGTCGCCACACTAGGTGAGCCGCGGAGTCACCTAGTGCAG” it was 8120 fluorescence intensity (a.u.).
For the sequence “ATGGGCTTTGTTGTGCTATAAGATCGTATTGGGCTCCTCACGGAGTCACCTAGTGCAG”, the binding signal is 9340 fluorescence intensity (a.u.).
Take “CGTAACCATCCTTTTCCCTTGTGTTTTTTGCTGACTGGTTCGGAGTCACCTAGTGCAG”: the binding signal was 11400 fluorescence intensity (a.u.).
Turning to “GACTCTAATTGCATGCAGTTCTTCAACTTATTTAGAACGTCGGAGTCACCTAGTGCAG”, the binding signal is 8230 fluorescence intensity (a.u.).
Then “CGTATGGCATCTGGCCCAAACTGCGTTGACCGGCCGAAGACGGAGTCACCTAGTGCAG”, with 12100 fluorescence intensity (a.u.); and “ACACCAAATACACTCATTCGTCAACGATGTAATGGCCATCCGGAGTCACCTAGTGCAG”, with 8520 fluorescence intensity (a.u.).
For the sequence “TTTAATCCTCTTCTTCCCCGGCCCATGCATATTCTCTCTGCGGAGTCACCTAGTGCAG”, the binding signal is 11500 fluorescence intensity (a.u.).
Take “TGACCTCCTTCTTGGACGCCTCGTCGACGTACTTCTGGTACGGAGTCACCTAGTGCAG”: the binding signal was 8550 fluorescence intensity (a.u.).
Then “GATCCATTCATCCCAACTTCTTCCATAGTACAAATCTCTTCGGAGTCACCTAGTGCAG”, with 10100 fluorescence intensity (a.u.).
Then “ACGGCTACCTCGACCACGGCTCCCTCACAACCTTTGCTTTCGGAGTCACCTAGTGCAG”, with 9560 fluorescence intensity (a.u.).
Then “TCTTCTTCTTTGTGATTCAGGCATCTGTTTATCGGTGTGTCGGAGTCACCTAGTGCAG”, with 9300 fluorescence intensity (a.u.); and “AGTGTGTAGGGATGTTGAGATTTCTTTTGATGTTGTTTTACGGAGTCACCTAGTGCAG”, with 9450 fluorescence intensity (a.u.); and “GCCGTCCCTCCATCACTGGCCGTTGCTACGCGCACATATCCGGAGTCACCTAGTGCAG”, with 10300 fluorescence intensity (a.u.).
For the sequence “GTTGTCTGCGTTCCACACCAATAACGGTGTTATCCATTAGCGGAGTCACCTAGTGCAG”, the binding signal was 8340 fluorescence intensity (a.u.).
For “GTCCCTATCCGCATCCGGTAGCCACCCCGCAGGCCGCGGCCGGAGTCACCTAGTGCAG”, the binding signal was 9110 fluorescence intensity (a.u.).
In the case of “CTATCCTTTACATGTTTTATATGTTGCCACTTTCATATGTCGGAGTCACCTAGTGCAG” it was 10800 fluorescence intensity (a.u.); in that of “TTATAACATCTCTAGCTTCCTTTTCTAACCGTTTAACTTTCGGAGTCACCTAGTGCAG”, 8410 fluorescence intensity (a.u.).
For the sequence “ACGTTGATTATATATCAAAATAGCGTTGACTAATAAGCAACGGAGTCACCTAGTGCAG”, the binding signal is 8240 fluorescence intensity (a.u.).
Regarding “CGCCGCCACCGCGACTCCTCGCATTCGTCCCCACCACATCCGGAGTCACCTAGTGCAG”, the binding signal is 9990 fluorescence intensity (a.u.).
